Source: publication PMC11651612
No constants are given. Whether binding was seen depends on the method and setting. In cells and extracts the contact can be indirect. These calls come from enrichment with a bait or labelling near it, and not all partners need be listed. Sequences can lack the tags named with a protein.

B1: Ubiquitin-conjugating enzyme E2 (protein, UniProt J9VS15 1-151)
chain: MAKVPRSFRLLSELEHGEKGIGDGSCSYGLKDSDDIAMYEWNGTILGPPHSAFENRIFSLSIYCGDNYPDVPPLVKFESRISLPCVNQQGLVDFSRISSISRWNRNFTLETVLVELRRDMASPANRKSSQPPEGVDFPPLDLRALAQQRGL
B2: Protein transport protein SEC23 (protein, UniProt J9VY38 1-763)
chain: MNFEDIEDKDGVRFSWNVWPSSRLEATRTVVPISALYTPLKEREDLPPVMYEPVTCKGSSCKAILNPYCQVDVRGKMWICPFCLQRNPFPPHYHQDLSPNNLPPELLPKFTTIEYTLSRPAQIPPIFLYIVDTCVDEDELKALKETLVVSLSLLPPNALVGLVTYGTMAMVHELAYADCPKAYVFRGSKDYQPKQIADMLGLNPSNRPIQPVRPGQPMPAPAASKFLMPVQACEFQLTNILEQLQRDPWPVDQDKRPLRCTGVALSVAVSLLETAFPNTGARIMLFSGGPATDGPGMVVGPELREPIRSHHDIDRDSVKHFKRASKFYEALSKRASVNGHAIDIYAGCLDQVGLLEMKSLTNATNGFMTISDSFMTAIFKQSFLRTLGKDEQGYLKMGFNATYDVLTTKELKISGVIGHVISANKKSSCVGETEIGIGQTSAWKVCSLTPKSTLATYFEVVTPAGQALAPNQSGLIQFVTHYQHSSGQYRLRVTTVSRVFQEGGHPSIAASFDQEAAAVLMARIAVFKAEIDDSPDVLRWLDRMLIRLCQKFADYRKEDPTSFQLSPNFSIYPQFMFHLRRSQFLQVFNNSPDETAFYRHVLNDSDVNNSLIMIQPTLMSYGFDSEPHPVLLDSVSIRPDVILLLDTFFHILIFHGETIAQWRKANYQEQEDYANFKELLEAPIGDAQELLEDRMPIPRYVVCDQGGSQARFLLSKLNPSTTHMSGSNYGAGPAGGQAIFTDDVSLQVFMEHLKRLAVGASTS
B3: RNA-binding protein 39 (protein, UniProt J9VSU3 1-615)
chain: MSTTPPRSSYQSANGGDKTPELTTKREKRHREDDEEDDRDVSGRSHRYRREDDRDYDRDRSDRGDRDRDRERRNRHRRRDETEEERRERHRRREEETEEEREERHRRRRERELRERGREREREDDYRRGSREMSVGRPLSHRDRSRESHRSYRSHRDRDEMPPIRPMSREPRDMAEERRENDRRREMHFADLERDGRMRSPPPRRRRLSPEYGGPRGPPPRRPPPPPRDPATALIEEVDSEARSIFVSQLSARMTSQVLGLFFEDKLGRGAVRDARVVTDKVARRSKGIGYVELDSVDLVNKALALSGTVVMGIPINIMLTEAERNHSGTELITATALASNARSHGGGGRSSVPFTQNYPPLSTGLDLPPGLDPDAHKDAAIPYHRLFVSNLAFSLTADDVRQVFEPFGEIEFVDLHMDLSGLRKGTAYVQFKDVKSAQMALDAMAGFDLAGRLIKVQTIQERGTYQTPDLIEDSGNYGTRLDANQRQQLMFKLARTEPNVNLSLSAPRINDSQSKVPAMDPTPRIVVHNMFNPEEETERNWDLDLAEDVKGEVESKYGRVKRIKVEKMSAGEVYIEFIDTDSAIKAVKGLNGRFFGGRQLQAGYITEALFNAHL
B4: Phosphotransferase (protein, UniProt J9VWU8 1-557)
chain: MSETPDQLASRVQKLSTATTTTQRTGSGSAVLENGTNTGSTAGRKASIPAQVDPERIISSSGSGRASRRGSGLVMTPGGVQTVYHTRTNDDIEFPHAEKKTMSDLLRKYESLFTLTPQRMRMIVHAIEETLDNGLQKNGQVVPMIPTYVFGWPTGDEVGDFLALDLGGTNLRVCLVTLLGRGKFEVTQTKYRLTEEQKQGEGQDLLDFCAECLNSFIRDTLGRTENDGILPLGFTFSYPCSQDRIDHGVLIRWTKGFGAPNIEGYDVAAMFKDSLKRFNVPAELTALINDTTGTLIASNYVDPHTKIAVIFGTGCNAAYMETAGSIPKIDYVGLPKEQGMAINCEWGAFDSFNHQHLPRTKYDIIIDESSNKPGEQSFEKMIAGLYLGEIFRLVLCELIDSGDLFLGQNTYKLEKAYAFDTAFLSLMEADVTEELLTVIGVFTHFFGLETTLEERQFFKKLAVLVGTRSARLSACGIAAIVSKKGYLEEGCAVGADGSLYNKYPNFADRVHEALTDIFGESGKKIVTHHAEDGSGVGSAIIAAMTKARKDSGFFVEY
B5: Oxidoreductase (CNAG_04955) (protein, UniProt J9VL98 1-379)
chain: MSMLLRARHVPPPLTRTMPLPYTVASTVPLPPAAVSKLQGAFASFIHRTDSSSPFTKDELSKIQVFFTTGRGPPVDSLAHVPNLELVQLCSAGADKAIASPAMKAYVDGRKAGDGKGDSKEVRLATASGTHVLSIPNYAVAMVITLLHQLPRQIVGARTEQRWLSEEECDMDGQAYYARKTFHRTAGLLGYGSLGRETARLLKAHGMRIIAANTSGKATPQDGYVIPGTGDKDGSIPEAFYSTKDPKSVKEFLNQCDVLVASLPNTPATQHFLNKEKLEMLPKGAVLVNVGRGSLIPSDDLIAVLNTPHLFGAALDVTDPEPLPAQHPLWSHPKCIITPHLSGNTEGEMEIAADVLMFNVQRMNDGKGVVNEVKWERGY
B6: Rab family protein (protein, UniProt J9VVN1 1-203)
chain: MSRTTSFKLVLLGESAVGKSSLVLRFVRNEFSDFRESTIGAAFLTQSVNLDESTTIKFEIWDTAGQERYKSLAPIYFRNSNAAVIVYDITQPPETSFEKAKSWVRELHRQADPSIVIMLVGNKTDMESQRKTSREMGEQYAKEEGLLFAEASAKTGEGVEELFMEIAKKLPLAPPPPRGQVAGGKGVQVSGQEDSATLSACTC
B7: Beta-catenin-like protein 1 (protein, UniProt J9VPN3 1-643)
chain: MDIDKMFKLPSLPSGGNKRKMGDLPNPETLKKYKPSEPQAASEMIPPPPPGGLNGKGKGRAVTVEDDDVEAEYSRGEDVYDGEDDEEGRFFGGGLNKEQEQILDIFDAAGEGEQGPTLDLPALRRQIGKFQRIVMKNAEQRGKFPDDPSKFIDSESDLDTSLKAFLPLTQNPPLFYPELVKSGIIPIFANLLSHENTDIAIDVVEVIQELTDEDVGGEVDDLNGEEETGSETRMAMGQLIDELLNNSLLDLLVSNLSRLDESEDTDSQGVFHILGVFENLLSFMPPLADQIVEGTALLQWLLQRIKKKEYDSNKQYASEIMAILLQDSRANVLKLGQLDGMDVMLQVLSQYLKVDPGDSEEVEFMENVFDSVCSSLAQPEMKKAFLDAEGVELMVLMMKEKRLAKTRAIKVLDYALQTESGSPACERFVQALGLKTFFSAFMSSASSKAGGKKNKSKLGAAAATSAVEDEEHMLGILASLFTNLASDSPERIRVIAKFVEGGYEKVERLLEVRDAAEGRLGSVIKEIEYERKVMQANEEEITDVEETEWYLRKMDAGLASLQNADYVLAWVCMEDDGAMTHARLLLSRKNMNFKTIAAVLTEFKNNVGDNDEPDEEDGQRQADDAANTQKMILEHLIAFLEGL
B8: F-type H-transporting ATPase subunit G (protein, UniProt J9VQH4 1-156)
chain: MRPQLFRPVRTLGRRLNSSSASPQTNPNVQKAVENAQKAYAQTAATLKKAAGPVGEKIGGALGGYREPVIYNSKVFASICRQVWQAEKLSPPLELATWARAYSEIYSKAVNGGYWKNVLKTGAWAGLGVAALEAYGIFKIGEIVGRRNLIGYSLKE
B9: Histone deacetylation protein Rxt3 (J9W095) (protein, UniProt J9W095 1-1165)
chain: MHPYGKLPQPQGTSNATSPPLPTATPASGPPPNPLRPSYGLVTDRDRDRERQTLGNPYSYPSSLQRPDPPSSSSSSHSHQQRHQHHHHHHHHPSGASSAGSTPRDERTNPYAPPPPGASAGRKPDMLGVGLGAGLGRLSGGYGLFGNSPFREQEMRDRERQERIQRERERDLKPPVPTSPTQRASISTTPGNSYPRPSLPPSPTNTIRGGLPASNTVTSKPSISPQLPPASAGSASASAARPSLPLPNFSSLGSRSLPSPFERDTRERSASGSAHPSPAVPTTQEVPPAVGGHARSLSNSSAREIPGLSGNDRSPPKPSAPSTARSLYAGGPPPLSGSQGSRDREVQRSPVTRAPTAASPREPSRDNISPPVAASTAKPPSSQAPPASGSLSGAPTSGRGPYTSSYTYPSNPAYAGSFGGFGLSSFGGYGAFGGPRWDHEREREAREARDARERVEREGKRDEEDKRKKEIERQREKEREEREREKWKAVREQDQRERERRSSLSTPSAAPGSSVATARPPDPYRRNTGSFEGKPSSGYTRHIEVLNHPDPSAQPAAASQNATNPAYERETSVIQQVAPTREPRPYGYKPEPVARETPPVQPPIREPAVSQMPRESLSSTAGREPRPEREYYQTVPPSAPVIPPIPVNAPVQPPREKRSRMDAVVEDAQVAHQAQQAQRRSSQAKSKRRKLEEEKMTQAHHGMGHSHASYGNHNVHGRHSPVMDKRDFASLAQLPQKRVEVSSAPVEAWLKGLPSLSRVIGTIDYSGKPFTLVKTGLVKPENEGGLIIVRIGGGFLGRGWRVRGEPGWEDASTKQVGNVVCGAQDPERACWGTDVYTDDSDLGLILVHAGWIRWSALPSLRSPQDRKKDEQEFINVTVRLVPRLVRYIGTERNGLKTRGWGNGHDGSSVVVERVERVKIDRKYLASRKRKARISEWVHQRALVCPIPSSKQEDEKMKETILLTTTVPTESLILSAINVSGKDVTVTGAFKYSPDVLKGWLDVPIEGDELDKSLWGYKLILEGSGETYQISMNKESTYKYPLINLTQLLPSDTGPKEIFASHPASGIYLWDGGFAAQIQGEKGILFKVEKFKWEKLKEGEVGAWAKEVEEVVPAVEEIADDVPVEEEGESAPQGDHEMAVDIAEVNGANGINGHVHMKEEQMDVDG

biological target: T1, Cdc3-mCherry (C. neoformans) (UniProt J9VUF2); assay: affinity purification with mass spectrometry; mCherry-tagged septin captured from C. neoformans lysate on RFP-Trap agarose, 4 h at 4°C, washed with TBS with 2 M urea pH 7.5; GeLC-MS/MS; untagged H99 as negative control; hits logFC >2 and adjusted p <0.001 (text-named hits <0.05); exponential cultures at ~25°C or shifted to 37°C for 2 h; N = 5
T1 sequence: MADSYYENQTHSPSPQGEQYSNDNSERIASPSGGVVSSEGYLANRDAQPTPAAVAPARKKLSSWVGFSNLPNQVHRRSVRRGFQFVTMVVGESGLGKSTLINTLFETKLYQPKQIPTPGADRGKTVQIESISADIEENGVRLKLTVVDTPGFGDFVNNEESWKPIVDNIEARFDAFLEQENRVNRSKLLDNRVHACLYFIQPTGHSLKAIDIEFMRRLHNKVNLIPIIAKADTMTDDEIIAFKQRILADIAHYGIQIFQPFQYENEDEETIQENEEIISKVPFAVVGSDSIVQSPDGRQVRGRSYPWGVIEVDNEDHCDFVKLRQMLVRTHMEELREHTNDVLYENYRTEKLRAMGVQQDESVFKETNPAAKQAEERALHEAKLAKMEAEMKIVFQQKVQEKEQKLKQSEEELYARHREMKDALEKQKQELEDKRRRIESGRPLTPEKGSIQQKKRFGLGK

Row | Binder | binding
1 | B1 | binds
2 | B2 | binds
3 | B3 | binds
4 | B4 | binds
5 | B5 | binds
6 | B6 | binds
7 | B7 | binds
8 | B8 | binds
9 | B9 | binds
